In publication PMC12411628:
These are yes or no findings as the source states them, for the method shown. For some assays here: In cells and extracts the contact can be indirect. Some binding calls cover weakened binding; strength is not graded here. For some assays here: Tags and fused reporters may be left off the sequences shown.

The chains behind the UniProt entries cited, without tags or fusion partners.
UniProt P06730: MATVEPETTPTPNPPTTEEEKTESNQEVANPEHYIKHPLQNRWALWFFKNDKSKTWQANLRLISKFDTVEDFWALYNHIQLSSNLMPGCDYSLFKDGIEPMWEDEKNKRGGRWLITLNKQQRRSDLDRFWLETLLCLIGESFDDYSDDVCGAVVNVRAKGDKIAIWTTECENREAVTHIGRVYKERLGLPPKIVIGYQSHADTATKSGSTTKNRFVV
UniProt Q13347: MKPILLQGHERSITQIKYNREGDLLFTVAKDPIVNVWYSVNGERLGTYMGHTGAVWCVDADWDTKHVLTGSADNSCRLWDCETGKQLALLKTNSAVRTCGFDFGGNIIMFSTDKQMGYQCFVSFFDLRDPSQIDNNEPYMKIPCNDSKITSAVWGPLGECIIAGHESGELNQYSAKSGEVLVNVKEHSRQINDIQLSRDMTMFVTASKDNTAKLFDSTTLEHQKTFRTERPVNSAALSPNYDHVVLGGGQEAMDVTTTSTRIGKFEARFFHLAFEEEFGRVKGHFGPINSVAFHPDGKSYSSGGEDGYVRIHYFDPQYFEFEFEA
UniProt P60842: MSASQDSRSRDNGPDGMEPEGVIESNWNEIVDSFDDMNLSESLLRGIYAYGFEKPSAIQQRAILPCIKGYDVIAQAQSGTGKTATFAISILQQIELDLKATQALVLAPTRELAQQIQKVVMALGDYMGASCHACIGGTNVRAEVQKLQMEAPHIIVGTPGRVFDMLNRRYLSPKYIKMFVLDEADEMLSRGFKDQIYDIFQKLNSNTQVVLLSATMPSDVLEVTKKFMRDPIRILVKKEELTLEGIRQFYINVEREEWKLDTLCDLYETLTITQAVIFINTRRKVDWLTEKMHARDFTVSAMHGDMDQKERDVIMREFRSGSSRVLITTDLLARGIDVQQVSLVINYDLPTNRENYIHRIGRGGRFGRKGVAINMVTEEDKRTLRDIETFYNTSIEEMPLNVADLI
UniProt P05198: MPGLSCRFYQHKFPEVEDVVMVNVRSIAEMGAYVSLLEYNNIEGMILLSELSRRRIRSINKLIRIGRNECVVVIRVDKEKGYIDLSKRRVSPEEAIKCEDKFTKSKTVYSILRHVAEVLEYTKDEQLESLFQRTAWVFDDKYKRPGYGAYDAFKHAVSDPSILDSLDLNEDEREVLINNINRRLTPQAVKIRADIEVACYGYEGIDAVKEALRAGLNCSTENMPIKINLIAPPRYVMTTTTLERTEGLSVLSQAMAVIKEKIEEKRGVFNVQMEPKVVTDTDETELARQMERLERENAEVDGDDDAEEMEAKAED
UniProt O00303: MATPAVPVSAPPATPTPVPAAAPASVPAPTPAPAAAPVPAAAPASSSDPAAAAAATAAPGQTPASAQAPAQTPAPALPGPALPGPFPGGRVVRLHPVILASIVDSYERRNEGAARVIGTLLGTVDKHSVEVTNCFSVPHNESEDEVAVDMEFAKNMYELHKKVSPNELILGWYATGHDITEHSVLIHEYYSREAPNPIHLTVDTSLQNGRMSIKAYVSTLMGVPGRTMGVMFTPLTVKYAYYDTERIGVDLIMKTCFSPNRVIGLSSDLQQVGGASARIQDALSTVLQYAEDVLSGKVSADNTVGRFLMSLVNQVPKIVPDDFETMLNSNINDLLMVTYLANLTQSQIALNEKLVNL
UniProt P55884: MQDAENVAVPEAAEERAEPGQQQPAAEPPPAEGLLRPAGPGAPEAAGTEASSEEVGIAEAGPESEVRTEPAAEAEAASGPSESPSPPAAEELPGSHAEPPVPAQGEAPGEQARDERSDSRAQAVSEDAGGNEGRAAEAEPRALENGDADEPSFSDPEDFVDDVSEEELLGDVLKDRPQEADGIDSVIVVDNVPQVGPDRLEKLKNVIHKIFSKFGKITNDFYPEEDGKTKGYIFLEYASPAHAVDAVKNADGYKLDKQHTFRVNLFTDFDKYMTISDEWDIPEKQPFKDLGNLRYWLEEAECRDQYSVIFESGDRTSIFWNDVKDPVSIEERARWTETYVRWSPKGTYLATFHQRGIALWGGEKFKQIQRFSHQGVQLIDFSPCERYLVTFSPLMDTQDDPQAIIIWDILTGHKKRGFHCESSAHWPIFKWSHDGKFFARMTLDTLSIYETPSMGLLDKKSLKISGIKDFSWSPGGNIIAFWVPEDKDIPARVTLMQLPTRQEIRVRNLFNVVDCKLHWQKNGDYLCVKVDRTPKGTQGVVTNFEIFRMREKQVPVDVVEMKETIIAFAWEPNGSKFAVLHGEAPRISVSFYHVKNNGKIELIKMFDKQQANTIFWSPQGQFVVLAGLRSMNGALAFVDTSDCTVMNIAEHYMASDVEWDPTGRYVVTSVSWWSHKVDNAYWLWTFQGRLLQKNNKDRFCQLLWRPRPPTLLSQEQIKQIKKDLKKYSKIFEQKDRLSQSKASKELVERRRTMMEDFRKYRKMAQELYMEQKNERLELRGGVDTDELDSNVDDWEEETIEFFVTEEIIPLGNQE
UniProt O75821: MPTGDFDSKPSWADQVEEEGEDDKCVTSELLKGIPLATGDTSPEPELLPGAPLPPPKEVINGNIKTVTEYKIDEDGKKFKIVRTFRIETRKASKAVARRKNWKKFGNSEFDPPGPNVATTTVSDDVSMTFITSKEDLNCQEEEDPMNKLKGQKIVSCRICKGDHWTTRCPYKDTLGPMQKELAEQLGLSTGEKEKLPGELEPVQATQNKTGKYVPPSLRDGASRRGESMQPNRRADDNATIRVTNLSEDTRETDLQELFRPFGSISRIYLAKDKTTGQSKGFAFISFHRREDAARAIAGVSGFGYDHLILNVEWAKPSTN

How the values were obtained:
[1] = molecular target: T1, Flag-tagged Ephexin1 (human) (UniProt Q8N5V2); experiment: co-IP; IP with anti-Flag antibody from extracts of HEK-293T cells transfected with Flag-tagged Ephexin1; IP150 lysis buffer (20 mM Tris–HCl pH 7.6, 150 mM NaCl, 0.5% Nonidet P-40, 10% glycerol); western blot; cells also treated with arsenite, heat shock or Torin1 (250 nM for 1 h)
T1 sequence: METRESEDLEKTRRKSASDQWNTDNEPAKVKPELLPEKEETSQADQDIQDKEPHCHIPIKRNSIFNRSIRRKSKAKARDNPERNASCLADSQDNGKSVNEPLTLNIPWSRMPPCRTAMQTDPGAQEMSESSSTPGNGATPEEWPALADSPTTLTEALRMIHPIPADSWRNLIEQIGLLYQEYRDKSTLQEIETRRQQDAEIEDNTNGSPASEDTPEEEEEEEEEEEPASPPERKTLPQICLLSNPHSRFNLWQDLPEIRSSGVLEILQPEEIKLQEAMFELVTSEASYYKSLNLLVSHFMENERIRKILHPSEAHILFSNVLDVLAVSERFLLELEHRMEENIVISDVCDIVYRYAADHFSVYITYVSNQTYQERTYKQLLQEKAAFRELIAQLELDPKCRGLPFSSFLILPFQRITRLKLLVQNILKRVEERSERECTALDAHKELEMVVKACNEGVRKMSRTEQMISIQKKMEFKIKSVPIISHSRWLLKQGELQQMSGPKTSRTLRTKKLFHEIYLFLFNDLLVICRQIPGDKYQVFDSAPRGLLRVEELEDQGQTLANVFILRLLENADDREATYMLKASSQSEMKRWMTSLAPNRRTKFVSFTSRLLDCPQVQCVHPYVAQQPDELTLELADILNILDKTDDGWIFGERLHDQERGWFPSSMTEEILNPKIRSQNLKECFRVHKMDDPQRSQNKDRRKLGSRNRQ

[2] = molecular target: eIF4E (human (endogenous in HEK-293T)) (UniProt P06730); experiment: co-IP; IP with eIF4E antibodies; control and Ephexin1-deficient cells
[3] = molecular target: T1, Flag-tagged Ephexin1 (human); experiment: co-IP; co-IP from 40S ribosomal and polysome fractions (sucrose gradient) isolated from HEK-293T cells transfected with control or Flag-tagged Ephexin1; western blot
[4] = molecular target: T2, GST-Ephexin1 (full-length) (human) (UniProt Q8N5V2); experiment: pull-down; in vitro GST-pulldown: recombinant Hisx6-tagged translation factors with GST or GST-tagged Ephexin1 recombinant protein; both purified
T2 sequence: T1 sequence

Row | binding [1] | binding [4] | further results | Substance
1 | binds |  | binding [2]: binds | eIF3i (from UniProt Q13347 1-325)
2 | binds |  | binding [3]: binds | eIF4A1 (from UniProt P60842 1-406)
3 | binds |  |  | eIF2a (from UniProt P05198 1-315)
4 | binds |  |  | eIF3f (from UniProt O00303 1-357)
5 |  | binds |  | Hisx6-tagged eIF3i (from UniProt Q13347 1-325)
6 |  | binds |  | Hisx6-tagged eIF2α (from UniProt P05198 1-315)
7 | binds |  |  | eIF3b (from UniProt P55884 1-814)
8 |  | binds |  | Hisx6-tagged eIF3g (from UniProt O75821 1-320)
9 | binds |  |  | eIF4E (from UniProt P06730 1-217)
